Results taken from PMC10193302.
These are yes or no findings as the source states them, for the method shown. In cells and extracts the contact can be indirect. These calls come from enrichment with a bait or labelling near it, and not all partners need be listed. Sequences can lack the tags named with a protein.

The chains behind the UniProt entries cited, without tags or fusion partners.
UniProt P80317: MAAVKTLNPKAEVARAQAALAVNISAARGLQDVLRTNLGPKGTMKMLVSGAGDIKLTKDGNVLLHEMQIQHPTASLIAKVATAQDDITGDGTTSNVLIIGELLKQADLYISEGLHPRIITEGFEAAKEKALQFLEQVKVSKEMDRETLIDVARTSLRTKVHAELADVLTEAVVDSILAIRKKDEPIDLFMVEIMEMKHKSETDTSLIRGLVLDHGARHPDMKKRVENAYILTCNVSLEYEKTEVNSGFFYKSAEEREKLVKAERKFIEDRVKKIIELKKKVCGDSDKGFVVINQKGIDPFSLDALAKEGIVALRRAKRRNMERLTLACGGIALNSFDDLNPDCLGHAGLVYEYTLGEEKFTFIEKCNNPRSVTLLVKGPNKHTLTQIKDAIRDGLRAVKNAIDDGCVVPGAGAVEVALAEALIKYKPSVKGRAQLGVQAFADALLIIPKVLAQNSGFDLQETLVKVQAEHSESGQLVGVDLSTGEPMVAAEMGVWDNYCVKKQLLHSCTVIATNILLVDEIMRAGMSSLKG
UniProt P11983: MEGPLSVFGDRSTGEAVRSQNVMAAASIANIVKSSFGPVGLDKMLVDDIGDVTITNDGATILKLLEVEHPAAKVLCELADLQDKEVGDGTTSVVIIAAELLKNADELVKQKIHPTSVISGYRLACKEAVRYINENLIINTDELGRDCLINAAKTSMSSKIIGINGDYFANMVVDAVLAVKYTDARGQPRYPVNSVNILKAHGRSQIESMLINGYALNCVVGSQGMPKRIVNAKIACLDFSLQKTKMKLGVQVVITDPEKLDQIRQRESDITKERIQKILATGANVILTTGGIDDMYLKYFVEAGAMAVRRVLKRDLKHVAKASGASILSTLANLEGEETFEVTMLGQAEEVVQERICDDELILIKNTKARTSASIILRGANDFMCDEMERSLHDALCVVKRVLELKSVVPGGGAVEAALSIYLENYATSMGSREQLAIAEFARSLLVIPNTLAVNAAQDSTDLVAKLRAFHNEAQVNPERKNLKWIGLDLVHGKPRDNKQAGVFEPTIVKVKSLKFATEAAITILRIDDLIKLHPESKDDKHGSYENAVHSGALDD
UniProt P80316: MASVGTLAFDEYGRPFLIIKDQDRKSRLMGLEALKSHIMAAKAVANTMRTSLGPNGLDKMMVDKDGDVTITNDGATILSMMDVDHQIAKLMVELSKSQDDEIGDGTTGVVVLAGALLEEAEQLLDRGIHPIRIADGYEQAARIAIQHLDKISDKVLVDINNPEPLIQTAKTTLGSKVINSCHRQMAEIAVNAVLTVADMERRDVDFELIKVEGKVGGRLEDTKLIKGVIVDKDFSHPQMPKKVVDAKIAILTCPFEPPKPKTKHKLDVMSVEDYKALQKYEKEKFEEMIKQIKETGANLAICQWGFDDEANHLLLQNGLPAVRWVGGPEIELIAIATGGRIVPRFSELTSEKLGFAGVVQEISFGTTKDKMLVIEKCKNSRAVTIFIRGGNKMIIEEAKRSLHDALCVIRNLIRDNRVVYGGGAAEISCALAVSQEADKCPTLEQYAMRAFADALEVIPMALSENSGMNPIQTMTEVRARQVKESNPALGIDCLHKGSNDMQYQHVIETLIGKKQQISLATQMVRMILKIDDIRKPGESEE
UniProt Q61390: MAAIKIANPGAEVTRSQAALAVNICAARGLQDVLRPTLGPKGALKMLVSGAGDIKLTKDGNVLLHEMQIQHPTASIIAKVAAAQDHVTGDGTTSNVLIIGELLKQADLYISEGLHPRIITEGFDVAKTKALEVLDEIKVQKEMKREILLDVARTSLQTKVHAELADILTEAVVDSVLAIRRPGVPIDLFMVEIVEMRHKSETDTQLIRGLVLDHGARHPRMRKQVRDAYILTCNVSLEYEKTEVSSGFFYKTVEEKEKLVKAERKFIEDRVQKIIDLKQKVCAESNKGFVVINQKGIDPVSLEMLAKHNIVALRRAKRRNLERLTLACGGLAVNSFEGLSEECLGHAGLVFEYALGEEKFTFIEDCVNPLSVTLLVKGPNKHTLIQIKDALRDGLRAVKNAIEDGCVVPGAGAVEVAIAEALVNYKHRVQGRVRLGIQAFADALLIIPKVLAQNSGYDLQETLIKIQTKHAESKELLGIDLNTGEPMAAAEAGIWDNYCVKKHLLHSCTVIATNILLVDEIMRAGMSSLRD

T1: 3xFlag-tagged Tbl1x (transducin (beta)-like 1 X-linked), construct PiggyBac-CAG-Avi-Tbl1x-3xFlag-ires-Neo (UniProt Q9QXE7)
T1 sequence: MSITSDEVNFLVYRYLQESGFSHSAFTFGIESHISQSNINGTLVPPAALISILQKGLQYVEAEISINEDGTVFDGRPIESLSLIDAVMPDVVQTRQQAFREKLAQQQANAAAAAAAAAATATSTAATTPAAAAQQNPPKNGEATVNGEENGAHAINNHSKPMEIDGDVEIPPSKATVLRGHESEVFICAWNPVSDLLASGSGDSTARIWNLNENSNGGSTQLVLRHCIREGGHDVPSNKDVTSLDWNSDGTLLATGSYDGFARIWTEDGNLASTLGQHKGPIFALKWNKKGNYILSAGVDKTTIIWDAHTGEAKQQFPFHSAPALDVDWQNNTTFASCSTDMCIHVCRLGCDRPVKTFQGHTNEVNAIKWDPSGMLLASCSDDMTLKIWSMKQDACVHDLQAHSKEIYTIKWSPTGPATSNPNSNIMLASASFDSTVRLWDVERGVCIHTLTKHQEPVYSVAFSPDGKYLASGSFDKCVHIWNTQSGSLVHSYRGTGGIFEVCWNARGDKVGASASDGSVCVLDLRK


Target: T1, 3xFlag-tagged Tbl1x (transducin (beta)-like 1 X-linked), construct PiggyBac-CAG-Avi-Tbl1x-3xFlag-ires-Neo
Experiment: affinity purification with mass spectrometry; anti-FLAG M2 agarose on nuclear extract of TSCs stably expressing Tbl1x-3xFlag, after 3 h PD0325901 or 48 h withdrawal of Fgf and CM with CHIR99021; 3 h at 4 C with Benzonase, buffer D (20 mM Hepes pH 7.6, 20% glycerol, 100 mM KCl); compared to an empty vector line, n = 3

Row | binding | Molecule
1 | binds | Cct6a (from UniProt P80317 1-531)
2 | binds | Cct2 (protein, UniProt P80314 1-535) MASLSLAPVNIFKAGADEERAETARLSSFIGAIAIGDLVKSTLGPKGMDKILLSSGRDAALMVTNDGATILKNIGVDNPAAKVLVDMSRVQDDEVGDGTTSVTVLAAELLREAESLIAKKIHPQTIISGWREATKAAREALLSSAVDHGSDEARFWQDLMNIAGTTLSSKLLTHHKDHFTKLAVEAVLRLKGSGNLEAIHVIKKLGGSLADSYLDEGFLLDKKIGVNQPKRIENAKILIANTGMDTDKIKIFGSRVRVDSTAKVAEIEHAEKEKMKEKVERILKHGINCFINRQLIYNYPEQLFGAAGVMAIEHADFAGVERLALVTGGEIASTFDHPELVKLGSCKLIEEVMIGEDKLIHFSGVALGEACTIVLRGATQQILDEAERSLHDALCVLAQTVKDPRTVYGGGCSEMLMAHAVTQLANRTPGKEAVAMESFAKALRMLPTIIADNAGYDSADLVAQLRAAHSEGHITAGLDMKEGTIGDMAVLGITESFQVKRQVLLSAAEAAEVILRVDNIIKAAPRKRVPDHHPC
3 | binds | Cct8 (protein, UniProt P42932 1-548) MALHVPKAPGFAQMLKDGAKHFSGLEEAVYRNIQACKELAQTTRTAYGPNGMNKMVINRLEKLFVTNDAATILRELEVQHPAAKMIVMASHMQEQEVGDGTNFVLVFAGALLELAEELLRIGLSVSEVISGYEIACKKAHEILPELVCCSAKNLRDVDEVSSLLRTSIMSKQYGSETFLAKLIAQACVSIFPDSGNFNVDNIRVCKILGSGIYSSSVLHGMVFKKETEGDVTSVKDAKIAVYSCPFDGMITETKGTVLIKTAEELMNFSKGEENLMDAQVKAIAGTGANVIVTGGKVADIALHYANKYNIMLVRLNSKWDLRRLCKTVGATALPKLTPPVQEEMGHCDSVYLSEVGDTQVVVFKHEKEDGAISTIVLRGSTDNLMDDIERAVDDGVNTFKVLTRDKRLVPGGGATEIELAKQITSYGETCPGLEQYAIKKFAEAFEAIPRALAENSGVKANEVISKLYSVHQEGNKNVGLDIEAEVPAVKDMLEASILDTYLGKYWAIKLATNAAVTVLRVDQIIMAKPAGGPKPPSGKKDWDDDQND
4 | binds | Cct3 (protein, UniProt P80318 1-545) MMGHRPVLVLSQNTKRESGRKVQSGNINAAKTIADIIRTCLGPKSMMKMLLDPMGGIVMTNDGNAILREIQVQHPAAKSMIEISRTQDEEVGDGTTSVIILAGEMLSVAEHFLEQQMHPTVVISAYRMALDDMISTLKKISTPVDVNNREMMLSIINSSITTKVISRWSSLACNIALDAVKTVQFEENGRKEIDIKKYARVEKIPGGIIEDSCVLRGVMINKDVTHPRMRRYIKNPRIVLLDSSLEYKKGESQTDIEITREEDFTRILQMEEEYIHQLCEDIIQLKPDVVITEKGISDLAQHYLMRANVTAIRRVRKTDNNRIARACGARIVSRPEELREDDVGTGAGLLEIKKIGDEYFTFITDCKDPKACTILLRGASKEILSEVERNLQDAMQVCRNVLLDPQLVPGGGASEMAVAHALTEKSKAMTGVEQWPYRAVAQALEVIPRTLIQNCGASTIRLLTSLRAKHTQESCETWGVNGETGTLVDMKELGIWEPLAVKLQTYKTAVETAVLLLRIDDIVSGHKKKGDDQNRQTGAPDAGQE

Continued, molecule first:

Row | Molecule | binding
5 | Tcp1 (from UniProt P11983 1-556) | binds
6 | Cct5 (from UniProt P80316 1-541) | binds
7 | Cct6b (from UniProt Q61390 1-531) | binds
8 | Cct7 (protein, UniProt P80313 1-544) MMPTPVILLKEGTDSSQGIPQLVSNISACQVIAEAVRTTLGPRGMDKLIVDGRGKATISNDGATILKLLDVVHPAAKTLVDIAKSQDAEVGDGTTSVTLLAAEFLKQVKPYVEEGLHPQIIIRAFRTATQLAVNKIKEIAVTVKKQDKVEQRKMLEKCAMTALSSKLISQQKVFFAKMVVDAVMMLDELLQLKMIGIKKVQGGALEESQLVAGVAFKKTFSYAGFEMQPKKYKNPKIALLNVELELKAEKDNAEIRVHTVEDYQAIVDAEWNILYDKLEKIHQSGAKVILSKLPIGDVATQYFADRDMFCAGRVPEEDLKRTMMACGGSIQTSVNALVPDVLGHCQVFEETQIGGERYNFFTGCPKAKTCTIILRGGAEQFMEETERSLHDAIMIVRRAIKNDSVVAGGGAIEMELSKYLRDYSRTIPGKQQLLIGAYAKALEIIPRQLCDNAGFDATNILNKLRARHAQGGMWYGVDINNENIADNFQAFVWEPAMVRINALTAASEAACLIVSVDETIKNPRSTVDPPAPSAGRGRGQARFH | binds
